According to the supplement of paper PMC10849652:
This is one part of the list.

Protein sequences, listed by entry. Tags and fused reporters are not part of them. Lines headed by an entry give the natural chain unless they say otherwise; changes in a name come on top.
UniProt Q9HD20: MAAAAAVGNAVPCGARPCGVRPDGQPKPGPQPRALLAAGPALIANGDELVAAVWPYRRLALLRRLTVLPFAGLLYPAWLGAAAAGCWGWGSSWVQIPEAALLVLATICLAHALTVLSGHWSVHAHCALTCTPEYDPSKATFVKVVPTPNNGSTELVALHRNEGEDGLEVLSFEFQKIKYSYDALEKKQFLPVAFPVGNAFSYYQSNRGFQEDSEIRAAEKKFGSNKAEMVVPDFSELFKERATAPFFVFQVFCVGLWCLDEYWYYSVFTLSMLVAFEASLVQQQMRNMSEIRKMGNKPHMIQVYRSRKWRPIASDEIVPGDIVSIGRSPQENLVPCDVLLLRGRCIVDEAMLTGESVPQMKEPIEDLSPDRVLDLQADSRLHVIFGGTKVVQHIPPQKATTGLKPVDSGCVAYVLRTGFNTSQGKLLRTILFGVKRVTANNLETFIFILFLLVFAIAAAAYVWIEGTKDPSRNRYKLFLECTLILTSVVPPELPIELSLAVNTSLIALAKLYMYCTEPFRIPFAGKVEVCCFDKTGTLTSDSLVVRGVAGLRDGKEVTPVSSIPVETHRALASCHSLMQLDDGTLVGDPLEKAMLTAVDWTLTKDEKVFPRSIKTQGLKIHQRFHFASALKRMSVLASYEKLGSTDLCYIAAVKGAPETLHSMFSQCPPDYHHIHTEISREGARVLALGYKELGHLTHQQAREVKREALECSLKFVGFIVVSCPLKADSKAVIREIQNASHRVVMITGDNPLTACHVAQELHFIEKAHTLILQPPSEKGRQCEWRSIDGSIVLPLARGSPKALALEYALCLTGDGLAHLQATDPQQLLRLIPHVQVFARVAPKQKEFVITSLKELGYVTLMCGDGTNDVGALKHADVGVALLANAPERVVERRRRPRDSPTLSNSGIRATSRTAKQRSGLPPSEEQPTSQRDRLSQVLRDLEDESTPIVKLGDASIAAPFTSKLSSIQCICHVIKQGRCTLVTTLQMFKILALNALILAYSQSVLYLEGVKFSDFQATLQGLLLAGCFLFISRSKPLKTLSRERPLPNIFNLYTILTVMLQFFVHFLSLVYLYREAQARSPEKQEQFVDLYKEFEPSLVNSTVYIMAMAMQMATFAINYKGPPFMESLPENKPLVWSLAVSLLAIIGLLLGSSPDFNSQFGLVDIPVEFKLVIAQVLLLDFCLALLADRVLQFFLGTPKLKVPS
UniProt P27540, whole entry, looked up: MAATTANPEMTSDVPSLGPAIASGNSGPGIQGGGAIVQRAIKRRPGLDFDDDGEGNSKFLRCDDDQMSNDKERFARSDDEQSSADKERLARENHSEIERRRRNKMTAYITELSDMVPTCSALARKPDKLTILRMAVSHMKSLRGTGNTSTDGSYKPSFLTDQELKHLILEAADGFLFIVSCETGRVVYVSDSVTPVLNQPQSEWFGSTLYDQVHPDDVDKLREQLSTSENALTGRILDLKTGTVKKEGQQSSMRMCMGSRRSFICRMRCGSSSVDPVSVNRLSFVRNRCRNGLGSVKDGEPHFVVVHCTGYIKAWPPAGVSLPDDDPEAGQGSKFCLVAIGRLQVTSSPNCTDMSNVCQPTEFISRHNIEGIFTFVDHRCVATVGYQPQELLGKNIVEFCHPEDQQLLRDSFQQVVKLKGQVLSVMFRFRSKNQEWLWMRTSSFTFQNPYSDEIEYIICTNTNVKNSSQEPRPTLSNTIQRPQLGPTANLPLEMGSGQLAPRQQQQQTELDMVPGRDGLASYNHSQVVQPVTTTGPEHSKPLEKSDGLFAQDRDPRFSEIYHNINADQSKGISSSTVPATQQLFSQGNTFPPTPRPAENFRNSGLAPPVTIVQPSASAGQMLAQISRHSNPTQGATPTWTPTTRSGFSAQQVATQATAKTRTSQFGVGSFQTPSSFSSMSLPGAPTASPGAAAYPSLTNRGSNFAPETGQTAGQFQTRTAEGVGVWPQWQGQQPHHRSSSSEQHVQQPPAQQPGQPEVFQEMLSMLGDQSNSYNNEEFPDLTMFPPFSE
UniProt P18859: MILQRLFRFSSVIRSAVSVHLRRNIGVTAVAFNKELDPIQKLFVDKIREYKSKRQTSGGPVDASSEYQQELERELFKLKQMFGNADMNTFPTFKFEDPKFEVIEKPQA
UniProt P16615: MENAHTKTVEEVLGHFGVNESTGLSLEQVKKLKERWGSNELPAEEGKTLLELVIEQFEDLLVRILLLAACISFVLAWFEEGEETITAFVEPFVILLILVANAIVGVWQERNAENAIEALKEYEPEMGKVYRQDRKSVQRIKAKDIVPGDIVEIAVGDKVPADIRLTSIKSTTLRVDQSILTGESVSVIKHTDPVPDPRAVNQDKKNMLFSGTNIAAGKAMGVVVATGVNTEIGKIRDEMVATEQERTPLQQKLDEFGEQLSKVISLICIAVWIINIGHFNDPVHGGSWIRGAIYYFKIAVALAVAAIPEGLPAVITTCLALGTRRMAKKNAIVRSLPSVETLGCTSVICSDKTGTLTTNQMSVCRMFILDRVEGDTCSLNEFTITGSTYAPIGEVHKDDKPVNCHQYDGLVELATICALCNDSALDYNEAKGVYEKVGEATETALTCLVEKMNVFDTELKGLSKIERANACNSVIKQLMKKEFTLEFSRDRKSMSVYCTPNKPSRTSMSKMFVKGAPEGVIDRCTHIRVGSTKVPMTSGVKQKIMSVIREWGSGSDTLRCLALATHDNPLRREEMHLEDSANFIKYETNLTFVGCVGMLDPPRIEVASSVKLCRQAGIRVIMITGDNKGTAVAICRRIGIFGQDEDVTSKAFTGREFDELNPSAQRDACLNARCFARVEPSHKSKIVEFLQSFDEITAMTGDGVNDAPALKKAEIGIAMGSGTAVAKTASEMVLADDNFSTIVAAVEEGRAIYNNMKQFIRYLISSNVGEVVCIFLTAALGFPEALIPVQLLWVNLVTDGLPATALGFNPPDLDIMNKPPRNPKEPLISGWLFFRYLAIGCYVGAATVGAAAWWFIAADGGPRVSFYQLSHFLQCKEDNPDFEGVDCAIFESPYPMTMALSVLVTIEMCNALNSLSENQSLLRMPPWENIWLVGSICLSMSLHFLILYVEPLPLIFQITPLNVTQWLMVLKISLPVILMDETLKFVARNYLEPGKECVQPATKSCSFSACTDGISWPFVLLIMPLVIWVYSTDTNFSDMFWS
UniProt Q15041, whole entry, looked up: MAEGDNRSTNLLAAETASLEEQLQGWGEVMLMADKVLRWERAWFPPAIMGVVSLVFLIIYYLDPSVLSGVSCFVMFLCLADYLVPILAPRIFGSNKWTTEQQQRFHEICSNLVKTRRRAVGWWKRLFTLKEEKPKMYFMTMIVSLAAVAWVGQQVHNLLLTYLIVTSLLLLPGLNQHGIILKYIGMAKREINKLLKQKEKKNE
UniProt L0R819, whole entry, looked up: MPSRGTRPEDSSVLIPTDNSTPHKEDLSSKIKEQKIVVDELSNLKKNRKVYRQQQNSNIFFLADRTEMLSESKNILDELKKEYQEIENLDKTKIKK
UniProt O94817, whole entry, looked up: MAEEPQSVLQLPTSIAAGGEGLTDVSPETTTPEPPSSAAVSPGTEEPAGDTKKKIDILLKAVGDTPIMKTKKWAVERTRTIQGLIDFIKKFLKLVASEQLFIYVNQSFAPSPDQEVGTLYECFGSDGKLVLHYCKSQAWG
UniProt O43681: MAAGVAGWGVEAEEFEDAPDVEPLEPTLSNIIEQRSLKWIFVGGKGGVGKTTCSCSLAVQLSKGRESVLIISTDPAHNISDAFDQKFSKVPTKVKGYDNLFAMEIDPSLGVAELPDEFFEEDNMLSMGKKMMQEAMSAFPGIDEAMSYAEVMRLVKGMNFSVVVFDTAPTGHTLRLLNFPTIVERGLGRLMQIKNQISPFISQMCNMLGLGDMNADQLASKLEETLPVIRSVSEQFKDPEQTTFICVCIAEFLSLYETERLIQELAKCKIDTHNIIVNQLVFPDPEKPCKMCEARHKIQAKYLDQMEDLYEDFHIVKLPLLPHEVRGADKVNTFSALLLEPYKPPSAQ
UniProt O95671: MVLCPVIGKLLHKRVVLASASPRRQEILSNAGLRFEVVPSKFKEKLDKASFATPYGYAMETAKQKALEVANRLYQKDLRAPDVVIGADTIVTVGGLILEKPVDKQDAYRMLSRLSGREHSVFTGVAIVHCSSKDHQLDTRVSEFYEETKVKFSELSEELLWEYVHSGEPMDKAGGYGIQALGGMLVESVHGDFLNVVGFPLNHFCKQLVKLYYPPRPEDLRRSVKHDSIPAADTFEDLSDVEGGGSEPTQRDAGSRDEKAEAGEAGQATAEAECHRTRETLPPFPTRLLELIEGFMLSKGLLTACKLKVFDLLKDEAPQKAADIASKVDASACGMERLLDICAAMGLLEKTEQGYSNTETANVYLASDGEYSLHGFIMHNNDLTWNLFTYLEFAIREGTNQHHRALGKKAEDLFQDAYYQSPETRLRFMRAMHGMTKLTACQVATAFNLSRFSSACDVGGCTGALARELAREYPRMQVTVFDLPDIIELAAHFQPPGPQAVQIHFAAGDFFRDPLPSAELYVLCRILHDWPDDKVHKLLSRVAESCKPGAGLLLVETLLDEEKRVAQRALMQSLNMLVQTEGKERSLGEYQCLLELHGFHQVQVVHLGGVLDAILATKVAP
UniProt P54259: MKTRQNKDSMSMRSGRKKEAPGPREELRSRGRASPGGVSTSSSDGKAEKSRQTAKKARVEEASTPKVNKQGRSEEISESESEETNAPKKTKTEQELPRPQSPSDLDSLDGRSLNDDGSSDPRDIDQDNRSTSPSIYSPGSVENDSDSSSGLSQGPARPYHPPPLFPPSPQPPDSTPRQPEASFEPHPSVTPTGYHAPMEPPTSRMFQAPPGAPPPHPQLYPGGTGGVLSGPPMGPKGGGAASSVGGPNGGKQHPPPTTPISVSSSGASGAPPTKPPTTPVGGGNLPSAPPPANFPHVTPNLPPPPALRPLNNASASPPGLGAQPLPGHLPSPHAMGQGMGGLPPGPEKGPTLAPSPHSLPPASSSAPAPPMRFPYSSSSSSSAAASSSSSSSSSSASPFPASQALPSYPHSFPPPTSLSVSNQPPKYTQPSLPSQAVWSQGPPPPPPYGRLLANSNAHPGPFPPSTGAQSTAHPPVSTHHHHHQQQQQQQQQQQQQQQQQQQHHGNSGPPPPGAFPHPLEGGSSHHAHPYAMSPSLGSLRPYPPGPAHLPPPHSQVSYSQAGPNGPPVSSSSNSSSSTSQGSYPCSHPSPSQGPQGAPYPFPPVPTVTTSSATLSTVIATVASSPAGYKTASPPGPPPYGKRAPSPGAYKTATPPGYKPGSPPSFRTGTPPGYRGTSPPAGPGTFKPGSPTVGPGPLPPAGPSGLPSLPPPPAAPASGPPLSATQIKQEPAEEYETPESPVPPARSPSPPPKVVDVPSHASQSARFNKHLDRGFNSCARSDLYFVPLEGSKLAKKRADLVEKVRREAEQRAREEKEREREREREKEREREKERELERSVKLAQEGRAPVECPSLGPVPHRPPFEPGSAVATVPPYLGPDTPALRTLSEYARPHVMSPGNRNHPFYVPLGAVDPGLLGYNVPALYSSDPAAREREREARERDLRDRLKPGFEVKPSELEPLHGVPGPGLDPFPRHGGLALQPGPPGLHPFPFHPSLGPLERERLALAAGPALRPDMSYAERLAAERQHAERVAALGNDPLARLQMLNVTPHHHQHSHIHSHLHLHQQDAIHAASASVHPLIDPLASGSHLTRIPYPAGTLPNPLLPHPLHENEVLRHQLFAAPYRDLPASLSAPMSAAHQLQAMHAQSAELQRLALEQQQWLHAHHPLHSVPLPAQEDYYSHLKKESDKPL
UniProt P61421, whole entry, looked up: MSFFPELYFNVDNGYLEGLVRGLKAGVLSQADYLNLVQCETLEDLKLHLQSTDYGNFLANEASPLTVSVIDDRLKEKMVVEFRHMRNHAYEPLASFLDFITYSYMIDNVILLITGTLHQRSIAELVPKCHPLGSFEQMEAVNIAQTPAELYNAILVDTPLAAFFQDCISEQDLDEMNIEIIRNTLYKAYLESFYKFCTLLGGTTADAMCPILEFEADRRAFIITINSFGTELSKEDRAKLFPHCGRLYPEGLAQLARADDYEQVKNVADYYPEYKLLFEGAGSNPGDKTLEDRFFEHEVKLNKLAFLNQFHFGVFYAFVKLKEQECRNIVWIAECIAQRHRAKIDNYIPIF
UniProt Q9Y689: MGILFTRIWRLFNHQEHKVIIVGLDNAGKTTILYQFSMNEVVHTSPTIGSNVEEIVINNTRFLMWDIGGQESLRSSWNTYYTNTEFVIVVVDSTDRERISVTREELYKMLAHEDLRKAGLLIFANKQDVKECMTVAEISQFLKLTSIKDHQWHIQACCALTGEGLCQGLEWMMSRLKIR
UniProt Q8N5M1: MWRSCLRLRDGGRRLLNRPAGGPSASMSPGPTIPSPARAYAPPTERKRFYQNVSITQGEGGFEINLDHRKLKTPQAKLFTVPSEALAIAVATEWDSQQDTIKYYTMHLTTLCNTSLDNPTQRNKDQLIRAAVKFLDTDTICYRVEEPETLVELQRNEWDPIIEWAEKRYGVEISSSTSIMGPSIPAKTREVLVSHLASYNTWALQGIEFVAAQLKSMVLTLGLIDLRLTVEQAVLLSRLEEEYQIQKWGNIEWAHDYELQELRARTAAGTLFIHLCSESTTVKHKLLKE

Compound: Cc1cc(Nc2cc(N3CCN(C)CC3)nc(Sc3ccc(NC(=O)C4CC4)cc3)n2)n[nH]1 [tozasertib]
Assay: log2 fold change, soluble protein after heating vs DMSO (PISA); higher = thermal stabilisation; K562 cells, 10 uM, 30 min; active = over 0.2 and 3.5 SD of the protein, either way, in both replicates (recomputed)
Method in brief: (§1)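 Aliquots of K562 cells (2×10^6 cells/mL) treated with 10 μM compound for 30 min were heated for 3 min over 48°C-58°C. After pooling and extraction in PBS with 0.5% NP-40 at 4°C, soluble protein from a 21,000xg, 90 min spin was quantified by TMTpro 16plex LC-MS/MS with channel sums equalised. Thermal stability is expressed against control samples, from duplicates, as a log2 fold change.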

log2 fold change, inactive:
ATG4C (UniProt Q96DT6) -0.044
ARL6IP5 (UniProt O75915) -0.032
ATE1 isoform 2 (UniProt O95260) 0.011
ATP5MPL (UniProt P56378) 0.027
ATP13A1 (UniProt Q9HD20) 0.011
ARNT (UniProt P27540) 0.052
ATP5PF isoform 2 (UniProt P18859) 0.014
ATP2A2 (UniProt P16615) -0.009
ARIH2 (UniProt O95376) 0.05
ATP7A isoform 3 (UniProt Q04656) 0.013
ATP5F1C (UniProt P36542) -0.008
ARMCX3 (UniProt Q9UH62) 0.115
ARL6IP1 (UniProt Q15041) -0.046
ASDURF (UniProt L0R819) -0.007
ATG12 (UniProt O94817) 0.025
ASNA1 (UniProt O43681) 0.004
ATP5PD (UniProt O75947) 0.019
ASMTL (UniProt O95671) -0.004
ATN1 (UniProt P54259) 0.007
ARL2 (UniProt P36404) 0.015
ASAP1 isoform 2 (UniProt Q9ULH1) 0.052
ATP6V0D1 (UniProt P61421) 0.061
ATP6V1D (UniProt Q9Y5K8) 0.003
ARPC5L (UniProt Q9BPX5) 0.044
ATP11C (UniProt Q8NB49) 0.005
ATP5F1E (UniProt P56381) -0.018
ATP5PO (UniProt P48047) -0.018
ASPM (UniProt Q8IZT6) -0.018
ATP11B (UniProt Q9Y2G3) -0.046
ATP6V1B2 (UniProt P21281) 0.039
ARL5A (UniProt Q9Y689) 0.006
ASF1B (UniProt Q9NVP2) -0.08
ARRB1 (UniProt P49407) -0.007
ATP5MG (UniProt O75964) -0.017
ARPC4 isoform 3 (UniProt P59998) 0.052
ATG13 isoform 5 (UniProt O75143) 0.071
ATPAF2 (UniProt Q8N5M1) 0.006

Compound: Cc1cc(SCc2sc(-c3ccc(C(F)(F)F)cc3)nc2C)ccc1OCC(=O)O
Assay: as above
Method in brief: as §1

log2 fold change, inactive:
ATG4C (UniProt Q96DT6) 0.062
ARL6IP5 (UniProt O75915) -0.007
ATE1 isoform 2 (UniProt O95260) 0.07
ATP5MPL (UniProt P56378) -0.088
ATP13A1 (UniProt Q9HD20) -0.013
ARNT (UniProt P27540) 0.029
ATP5PF isoform 2 (UniProt P18859) -0.034
ATP2A2 (UniProt P16615) -0.009
ARIH2 (UniProt O95376) -0.01
ATP7A isoform 3 (UniProt Q04656) -0.005
ATP5F1C (UniProt P36542) -0.009
ARMCX3 (UniProt Q9UH62) 0.022
ARL6IP1 (UniProt Q15041) 0.039
ASDURF (UniProt L0R819) -0.033
ATG12 (UniProt O94817) -0.014
ASNA1 (UniProt O43681) -0.002
ATP5PD (UniProt O75947) 0.008
ASMTL (UniProt O95671) 0.058
ATN1 (UniProt P54259) -0.07
ARL2 (UniProt P36404) -0.024
ASAP1 isoform 2 (UniProt Q9ULH1) 0.058
ATP6V0D1 (UniProt P61421) 0.083
ATP6V1D (UniProt Q9Y5K8) -0.024
ARPC5L (UniProt Q9BPX5) -0.011
ATP11C (UniProt Q8NB49) -0.093
ATP5F1E (UniProt P56381) -0.073
ATP5PO (UniProt P48047) -0.037
ASPM (UniProt Q8IZT6) 0.015
ATP11B (UniProt Q9Y2G3) -0.016
ATP6V1B2 (UniProt P21281) -0.024
ARL5A (UniProt Q9Y689) -0.003
ASF1B (UniProt Q9NVP2) 0.028
ARRB1 (UniProt P49407) -0.017
ATP5MG (UniProt O75964) -0.027
ARPC4 isoform 3 (UniProt P59998) -0.061
ATG13 isoform 5 (UniProt O75143) 0.02
ATPAF2 (UniProt Q8N5M1) 0.055
